The text below walks through data of PubChem BioAssay AID248 (DTP/NCI, 2004).

The list is a part of this screen's results and no random one: it is rich in T/C values a quarter to a half above the control, in often repeated tests (any T/C) and in doses without a T/C. Further doses and runs are listed elsewhere. T/C gives the treated animals as a percentage of the vehicle group. Some doses have a count of surviving animals in place of a T/C: the source holds a T/C of zero for them, seemingly a mark for toxic or unscored doses. Some doses without a T/C left all or most animals alive at the check, yet need not have been tolerated: the source hardly ever lists a survival T/C far under the control, and the zero likely stands for such cases as well. Survivors were counted at the toxicity check, usually on the fifth day, unless a day is given; later deaths do not show. Schedule codes are those of the source, taken here to give the interval after Q, in days (D) or hours (H), and the number of doses after X. Some doses were run more than once; their values stand side by side, smallest first. Some schedules carry Z or #; the key to these is not given. For survival time, the PubChem record calls one and a half times the control and up active, and a quarter to a half above the control has no call in these data; cut-offs in other NCI protocols can differ. Some T/C values carry the count of animals alive at the toxicity check (mostly the fifth day); where none is given, no animal had died by that day.

This test has as its system L1210 leukemia ip in BDF1 mice, survival T/C. Put plainly: NCI In Vivo Anticancer Drug Screen. Data for tumor model L1210 Leukemia (intraperitoneal) in B6D2F1 (BDF1) mice. The following applies: higher T/C = longer survival.

Consider `CN(C)P(Cl)(Cc1ccccc1)(c1ccccc1)c1ccccc1`, for which the survivor count is, setting by setting: (T/C endpoint: mean survival time, dose: 12.5 mg/kg/injection, schedule: Q01DX009 (ip), vehicle: saline) 0 of 6; (T/C endpoint: mean survival time, dose: 25.0 mg/kg/injection, schedule: Q04DX003 (ip), vehicle: saline) 0 of 6; (T/C endpoint: mean survival time, dose: 50.0 mg/kg/injection, schedule: Q04DX003 (ip), vehicle: saline) 0 of 6; (T/C endpoint: mean survival time, dose: 100.0 mg/kg/injection, schedule: Q04DX003 (ip), vehicle: saline) 0 of 6; (T/C endpoint: mean survival time, dose: 200.0 mg/kg/injection, schedule: Q04DX003 (ip), vehicle: saline) 0 of 6; (T/C endpoint: mean survival time, dose: 400.0 mg/kg/injection, schedule: Q04DX003 (ip), vehicle: saline) 0 of 6.

With `CC[C@H]1CN2CCc3cc(OC)c(OC)cc3[C@@H]2C[C@@H]1C[C@H]1NCCc2cc(O)c(OC)cc21`, the T/C was 131 and 141 % of control (T/C endpoint: mean survival time, dose: 2.0 mg/kg/injection, schedule: Q01DX015 (ip), vehicle: saline); 130 % of control (T/C endpoint: mean survival time, dose: 4.0 mg/kg/injection, schedule: Q01DX005 (ip), vehicle: saline); 136 % of control (T/C endpoint: mean survival time, dose: 4.0 mg/kg/injection, schedule: Q01DX015 (ip), vehicle: saline); 127 % of control (T/C endpoint: mean survival time, dose: 7.5 mg/kg/injection, schedule: Q01DX001 (ip), vehicle: saline); 148 % of control (T/C endpoint: mean survival time, dose: 7.5 mg/kg/injection, schedule: Q01DX015 (ip), vehicle: saline); 129 % of control (T/C endpoint: mean survival time, dose: 8.0 mg/kg/injection, schedule: Q01DX015 (ip), vehicle: saline). The T/C is 127 % of control (T/C endpoint: mean survival time, dose: 8.0 mg/kg/injection, schedule: Q04DX003 (ip), vehicle: saline); 135 % of control (T/C endpoint: mean survival time, dose: 15.0 mg/kg/injection, schedule: Q01DX001 (ip), vehicle: saline); 134 and 140 % of control (T/C endpoint: mean survival time, dose: 16.0 mg/kg/injection, schedule: Q04DX003 (ip), vehicle: saline); 130 % of control (T/C endpoint: mean survival time, dose: 16.0 mg/kg/injection, schedule: Q## X003 (ip), vehicle: saline); 133 % of control [8 of 10 alive] (T/C endpoint: mean survival time, dose: 16.0 mg/kg/injection, schedule: Q## X008 (ip), vehicle: saline); 132 % of control (T/C endpoint: mean survival time, dose: 30.0 mg/kg/injection, schedule: Q01DX001 (ip), vehicle: saline). Further, the T/C (T/C endpoint: mean survival time, dose: 32.0 mg/kg/injection, schedule: Q01DX009 (ip), vehicle: saline) was 136 % of control [9 of 10 alive]; the T/C (T/C endpoint: mean survival time, dose: 32.0 mg/kg/injection, schedule: Q04DX003 (ip), vehicle: saline) was 136 % of control; the T/C (T/C endpoint: mean survival time, dose: 60.0 mg/kg/injection, schedule: Q01DX001 (ip), vehicle: saline) is 132 % of control [3 of 4 alive]; the T/C (T/C endpoint: median survival time, dose: 32.0 mg/kg/injection, schedule: Q04DX003 (ip), vehicle: alkali diluted with saline) is 128 % of control; the T/C (T/C endpoint: median survival time, dose: 64.0 mg/kg/injection, schedule: Q04DX003 (ip), vehicle: alkali diluted with saline) is 128 % of control. In addition, the survivor count (T/C endpoint: mean survival time, dose: 16.0 mg/kg/injection, schedule: Q01DX009 (ip), vehicle: saline) is 7 of 10; the survivor count (T/C endpoint: mean survival time, dose: 24.0 mg/kg/injection, schedule: Q01DX001 (oral), vehicle: saline) is recorded as 7 of 10; the survivor count (T/C endpoint: mean survival time, dose: 30.0 mg/kg/injection, schedule: Q01DX015 (ip), vehicle: saline) is 0 of 6 and 1 of 6; the survivor count (T/C endpoint: mean survival time, dose: 32.0 mg/kg/injection, schedule: Q01DX005 (ip), vehicle: saline) was 3 of 10; the survivor count (T/C endpoint: mean survival time, dose: 32.0 mg/kg/injection, schedule: Q## X002 (ip), vehicle: saline) is recorded as 0 of 10; the survivor count (T/C endpoint: mean survival time, dose: 32.0 mg/kg/injection, schedule: Q## X003 (ip), vehicle: saline) is listed as 4 of 10. Moreover, the survivor count is 3 of 10 (T/C endpoint: mean survival time, dose: 32.0 mg/kg/injection, schedule: Q## X008 (ip), vehicle: saline); 3 of 10 (T/C endpoint: mean survival time, dose: 32.0 mg/kg/injection, schedule: Q## X016 (ip), vehicle: saline); 0 of 10 (T/C endpoint: mean survival time, dose: 32.0 mg/kg/injection, schedule: Q## X024 (ip), vehicle: saline); 1 of 10 (T/C endpoint: mean survival time, dose: 48.0 mg/kg/injection, schedule: Q01DX001 (oral), vehicle: saline); 0 of 6 (T/C endpoint: mean survival time, dose: 60.0 mg/kg/injection, schedule: Q01DX015 (ip), vehicle: saline); 5 of 10 (T/C endpoint: mean survival time, dose: 64.0 mg/kg/injection, schedule: Q01DX009 (ip), vehicle: saline). Also, the survivor count reads like this: (T/C endpoint: mean survival time, dose: 64.0 mg/kg/injection, schedule: Q04DX003 (ip), vehicle: saline) 1 of 10; (T/C endpoint: mean survival time, dose: 64.0 mg/kg/injection, schedule: Q## X002 (ip), vehicle: saline) 2 of 10; (T/C endpoint: mean survival time, dose: 64.0 mg/kg/injection, schedule: Q## X008 (ip), vehicle: saline) 0 of 10; (T/C endpoint: mean survival time, dose: 64.0 mg/kg/injection, schedule: Q## X016 (ip), vehicle: saline) 0 of 10; (T/C endpoint: mean survival time, dose: 96.0 mg/kg/injection, schedule: Q01DX001 (oral), vehicle: saline) 1 of 10; (T/C endpoint: mean survival time, dose: 120.0 mg/kg/injection, schedule: Q01DX015 (ip), vehicle: saline) 0 of 6. In addition, the survivor count (T/C endpoint: mean survival time, dose: 240.0 mg/kg/injection, schedule: Q01DX015 (ip), vehicle: saline) was 0 of 6.

For `Nc1cccc2cc3ccccc3nc12`, the survivor count (T/C endpoint: mean survival time, dose: 100.0 mg/kg/injection, schedule: Q04DX003 (ip), vehicle: Klucel (hydroxypropylcellulose) (HPC)) is listed as 0 of 6; the survivor count (T/C endpoint: mean survival time, dose: 200.0 mg/kg/injection, schedule: Q04DX003 (ip), vehicle: Klucel (hydroxypropylcellulose) (HPC)) is 0 of 6; the survivor count (T/C endpoint: mean survival time, dose: 400.0 mg/kg/injection, schedule: Q04DX003 (ip), vehicle: Klucel (hydroxypropylcellulose) (HPC)) is reported as 0 of 6.

Regarding `COc1c2ccoc2nc2c(OC)c(OCC(O)C(C)(C)O)ccc12` (stereo unspecified), the survivor count (T/C endpoint: mean survival time, dose: 200.0 mg/kg/injection, schedule: Q01DX Z (ip), vehicle: carboxymethylcellulose (CMC)) is 2 of 6.

On to `CCC(C(C)C)C(Br)C(Br)C(C)C1CCC2C3CC=C4CC(OC(C)=O)CCC4(C)C3CCC12C` (stereo unspecified), for which, where the note is “T/C endpoint: mean survival time, dose: 100.0 mg/kg/injection, schedule: Q01DX009 (ip), vehicle: Klucel (hydroxypropylcellulose) (HPC)”, the survivor count is given as 6 of 6.

As to `COCCN(N=O)C(=O)NC1CCCCC1`, the T/C was 125 % of control (T/C endpoint: mean survival time, dose: 600.0 mg/kg/injection, schedule: Q01DX001 (ip), vehicle: carboxymethylcellulose (CMC)); 130 % of control (T/C endpoint: mean survival time, dose: 650.0 mg/kg/injection, schedule: Q01DX001 (ip), vehicle: carboxymethylcellulose (CMC)); 129 % of control [5 of 6 alive] (T/C endpoint: mean survival time, dose: 750.0 mg/kg/injection, schedule: Q01DX001 (ip), vehicle: carboxymethylcellulose (CMC)); 138 % of control (T/C endpoint: mean survival time, dose: 900.0 mg/kg/injection, schedule: Q01DX001 (ip), vehicle: carboxymethylcellulose (CMC)).

Turning to `CCC1c2ccc3cc(OC)ccc3c2C(=O)C1CC(=O)O` (stereo unspecified), under “T/C endpoint: mean survival time, dose: 400.0 mg/kg/injection, schedule: Q01DX001 (ip), vehicle: saline”, the survivor count is listed as 0 of 6.

In the case of `Cc1n[nH]c(=S)[nH]c1=S`, the survivor count is on record as 2 of 6 (T/C endpoint: mean survival time, dose: 200.0 mg/kg/injection, schedule: Q04DX003 (ip), vehicle: saline with Tween-80) and 0 of 6 (T/C endpoint: mean survival time, dose: 400.0 mg/kg/injection, schedule: Q04DX003 (ip), vehicle: saline with Tween-80).

Take `O=S(=O)(/C=C/c1ccccc1)c1ccc(F)cc1`: the survivor count (T/C endpoint: mean survival time, dose: 200.0 mg/kg/injection, schedule: Q01DX009 (ip), vehicle: acetone) is listed as 6 of 6 and the survivor count (T/C endpoint: mean survival time, dose: 400.0 mg/kg/injection, schedule: Q01DX009 (ip), vehicle: acetone) is given as 4 of 6.

For `COc1cc(C(=O)CCC(=O)O)c(OC)c(CBr)c1CBr`, the survivor count runs as follows: (T/C endpoint: mean survival time, dose: 40.0 mg/kg/injection, schedule: Q01DX001 (ip), vehicle: other) 3 of 6; (T/C endpoint: mean survival time, dose: 80.0 mg/kg/injection, schedule: Q01DX001 (ip), vehicle: other) 0 of 6; (T/C endpoint: mean survival time, dose: 100.0 mg/kg/injection, schedule: Q01DX001 (ip), vehicle: other) 0 of 6; (T/C endpoint: mean survival time, dose: 200.0 mg/kg/injection, schedule: Q01DX001 (ip), vehicle: other) 0 of 6; (T/C endpoint: mean survival time, dose: 400.0 mg/kg/injection, schedule: Q01DX001 (ip), vehicle: other) 0 of 6.
